Results from article doi:10.1101/2025.09.24.678297.
These are yes or no findings as the source states them, for the method shown. Some binding calls cover weakened binding; strength is not graded here. Tags and fused reporters may be left off the sequences shown.

T1: Pil1-Ste4-mCherry (WT) (S. pombe) (UniProt P36622)
T1 sequence: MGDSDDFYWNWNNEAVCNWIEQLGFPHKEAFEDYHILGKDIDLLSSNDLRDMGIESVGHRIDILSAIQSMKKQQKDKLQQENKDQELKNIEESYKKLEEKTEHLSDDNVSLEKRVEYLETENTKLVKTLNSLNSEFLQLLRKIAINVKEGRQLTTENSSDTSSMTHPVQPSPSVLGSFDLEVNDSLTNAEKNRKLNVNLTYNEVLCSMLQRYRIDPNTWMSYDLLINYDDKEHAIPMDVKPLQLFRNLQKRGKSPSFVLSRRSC

T2: Ste4, two-hybrid fusion (S. pombe) (UniProt P36622)
T2 sequence: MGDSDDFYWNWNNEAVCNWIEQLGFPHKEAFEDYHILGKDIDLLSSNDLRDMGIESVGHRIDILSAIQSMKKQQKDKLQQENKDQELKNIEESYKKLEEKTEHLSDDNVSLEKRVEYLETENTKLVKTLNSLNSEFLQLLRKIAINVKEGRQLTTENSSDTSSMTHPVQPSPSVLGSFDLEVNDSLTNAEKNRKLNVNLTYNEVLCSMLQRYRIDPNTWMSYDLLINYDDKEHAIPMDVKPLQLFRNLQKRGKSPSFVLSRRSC

B1: Byr2-GFP (WT) (enzyme, UniProt P28829 1-659)
chain: MEYYTSKEVAEWLKSIGLEKYIEQFSQNNIEGRHLNHLTLPLLKDLGIENTAKGKQFLKQRDYLREFPRPCILRFIACNGQTRAVQSRGDYQKTLAIALKKFSLEDASKFIVCVSQSSRIKLITEEEFKQICFNSSSPERDRLIIVPKEKPCPSFEDLRRSWEIELAQPAALSSQSSLSPKLSSVLPTSTQKRSVRSNNAKPFESYQRPPSELINSRISDFFPDHQPKLLEKTISNSLRRNLSIRTSQGHNLGNFGQEILPRSSRRARPSELVCPLSSLRISVAEDVNRLPRIDRGFDPPLTVSSTQRISRPPSLQKSITMVGVEPLYQSNGNEKSSKYNVFSESAHGNHQVLSFSPGSSPSFIEQPSPISPTSTTSEDTNTLEEDTDDQSIKWIRGALIGSGSFGQVYLGMNASSGELMAVKQVILDSVSESKDRHAKLLDALAGEIALLQELSHEHIVQYLGSNLNSDHLNIFLEYVPGGSVAGLLTMYGSFEETLVKNFIKQTLKGLEYLHSRGIVHRDIKGANILVDNKGKIKISDFGISKKLELNSTSTKTGGARPSFQGSSFWMAPEVVKQTMHTEKTDIWSLGCLVIEMLTSKHPYPNCDQMQAIFRIGENILPEFPSNISSSAIDFLEKTFAIDCNLRPTASELLSHPFVS
B2: Byr2, two-hybrid fusion (enzyme, UniProt P28829 1-659)
chain: MEYYTSKEVAEWLKSIGLEKYIEQFSQNNIEGRHLNHLTLPLLKDLGIENTAKGKQFLKQRDYLREFPRPCILRFIACNGQTRAVQSRGDYQKTLAIALKKFSLEDASKFIVCVSQSSRIKLITEEEFKQICFNSSSPERDRLIIVPKEKPCPSFEDLRRSWEIELAQPAALSSQSSLSPKLSSVLPTSTQKRSVRSNNAKPFESYQRPPSELINSRISDFFPDHQPKLLEKTISNSLRRNLSIRTSQGHNLGNFGQEILPRSSRRARPSELVCPLSSLRISVAEDVNRLPRIDRGFDPPLTVSSTQRISRPPSLQKSITMVGVEPLYQSNGNEKSSKYNVFSESAHGNHQVLSFSPGSSPSFIEQPSPISPTSTTSEDTNTLEEDTDDQSIKWIRGALIGSGSFGQVYLGMNASSGELMAVKQVILDSVSESKDRHAKLLDALAGEIALLQELSHEHIVQYLGSNLNSDHLNIFLEYVPGGSVAGLLTMYGSFEETLVKNFIKQTLKGLEYLHSRGIVHRDIKGANILVDNKGKIKISDFGISKKLELNSTSTKTGGARPSFQGSSFWMAPEVVKQTMHTEKTDIWSLGCLVIEMLTSKHPYPNCDQMQAIFRIGENILPEFPSNISSSAIDFLEKTFAIDCNLRPTASELLSHPFVS
B3: Byr2^N28I-GFP (enzyme, UniProt P28829 1-659)
chain: MEYYTSKEVAEWLKSIGLEKYIEQFSQINIEGRHLNHLTLPLLKDLGIENTAKGKQFLKQRDYLREFPRPCILRFIACNGQTRAVQSRGDYQKTLAIALKKFSLEDASKFIVCVSQSSRIKLITEEEFKQICFNSSSPERDRLIIVPKEKPCPSFEDLRRSWEIELAQPAALSSQSSLSPKLSSVLPTSTQKRSVRSNNAKPFESYQRPPSELINSRISDFFPDHQPKLLEKTISNSLRRNLSIRTSQGHNLGNFGQEILPRSSRRARPSELVCPLSSLRISVAEDVNRLPRIDRGFDPPLTVSSTQRISRPPSLQKSITMVGVEPLYQSNGNEKSSKYNVFSESAHGNHQVLSFSPGSSPSFIEQPSPISPTSTTSEDTNTLEEDTDDQSIKWIRGALIGSGSFGQVYLGMNASSGELMAVKQVILDSVSESKDRHAKLLDALAGEIALLQELSHEHIVQYLGSNLNSDHLNIFLEYVPGGSVAGLLTMYGSFEETLVKNFIKQTLKGLEYLHSRGIVHRDIKGANILVDNKGKIKISDFGISKKLELNSTSTKTGGARPSFQGSSFWMAPEVVKQTMHTEKTDIWSLGCLVIEMLTSKHPYPNCDQMQAIFRIGENILPEFPSNISSSAIDFLEKTFAIDCNLRPTASELLSHPFVS
B4: Byr2^N28I, two-hybrid fusion (enzyme, UniProt P28829 1-659)
chain: MEYYTSKEVAEWLKSIGLEKYIEQFSQINIEGRHLNHLTLPLLKDLGIENTAKGKQFLKQRDYLREFPRPCILRFIACNGQTRAVQSRGDYQKTLAIALKKFSLEDASKFIVCVSQSSRIKLITEEEFKQICFNSSSPERDRLIIVPKEKPCPSFEDLRRSWEIELAQPAALSSQSSLSPKLSSVLPTSTQKRSVRSNNAKPFESYQRPPSELINSRISDFFPDHQPKLLEKTISNSLRRNLSIRTSQGHNLGNFGQEILPRSSRRARPSELVCPLSSLRISVAEDVNRLPRIDRGFDPPLTVSSTQRISRPPSLQKSITMVGVEPLYQSNGNEKSSKYNVFSESAHGNHQVLSFSPGSSPSFIEQPSPISPTSTTSEDTNTLEEDTDDQSIKWIRGALIGSGSFGQVYLGMNASSGELMAVKQVILDSVSESKDRHAKLLDALAGEIALLQELSHEHIVQYLGSNLNSDHLNIFLEYVPGGSVAGLLTMYGSFEETLVKNFIKQTLKGLEYLHSRGIVHRDIKGANILVDNKGKIKISDFGISKKLELNSTSTKTGGARPSFQGSSFWMAPEVVKQTMHTEKTDIWSLGCLVIEMLTSKHPYPNCDQMQAIFRIGENILPEFPSNISSSAIDFLEKTFAIDCNLRPTASELLSHPFVS

What was measured:
[1] = molecular target: T1, Pil1-Ste4-mCherry (WT) (S. pombe); assay: Pil1 co-recruitment assay
[2] = molecular target: T2, Ste4, two-hybrid fusion (S. pombe); assay: two-hybrid

Binder | binding [1] | binding [2]
B1 | binds | 
B2 |  | binds
B3 | no binding | 
B4 |  | no binding
